Measurements reported in PubChem BioAssay AID720505 (Drosophila RNAi Screening Center, 2013)

Screen: 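Knock-downs that reduce calcium influx once internal stores are emptied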 (primary screen)
Cell system: Drosophila S2R+ cells
Reagents: long dsRNA against Drosophila genes
Challenge: thapsigargin (2 µM) in calcium-free buffer to empty internal stores, then 2 mM calcium added back
Read-out: 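Fluo-4 signal in 384-well plates read on a FLIPR after thapsigargin (2 µM, calcium-free) store depletion and 2 mM calcium add-back; unnormalised mean endpoint per well; screen run twice, selected wells retested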
Direction: calcium signal and retest calcium signal: higher = more calcium entry after store depletion
Active means: 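Knock-downs counted as hits when calcium entry dropped relative to STIM1 positive and Rho1 negative controls present on each plate; roughly 1500 genes called, with reductions of differing size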
Calls: active = called as lowering calcium entry; inactive = not called
The screen tested about 20,000 reagents; below is a random part of those with a known target gene and a result. In the full data, about 2,100 (10%) got an active call. 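Raw plate signals without normalisation; calls rest on control-based scores that were not deposited; replicate 2 separates called from uncalled poorly.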 Unmarked entries are inactive. The numbers tell different reagents against one gene apart. A plus sign joins genes that one reagent is predicted to hit. Not stated in the record: the amount of reagent, the time to read-out.

For Src42A #1, the values are calcium signal, replicate 1 = 111; calcium signal, replicate 2 = 126. For Src42A #2 the deposit lists calcium signal, replicate 1 = 154; calcium signal, replicate 2 = 168. Silencing of CG30177 came out at: calcium signal, replicate 1 = 110; calcium signal, replicate 2 = 151. For BI-1 the deposit lists calcium signal, replicate 1 = 72.6 (active); calcium signal, replicate 2 = 84.6. Knock-down of noi came out at: calcium signal, replicate 1 = 42.4 (active); calcium signal, replicate 2 = 60.2. With knock-down of Snx21, the screen gave calcium signal, replicate 1 = 73.7; calcium signal, replicate 2 = 157.

Silencing of Trf4 came out at: calcium signal, replicate 1 = 191; calcium signal, replicate 2 = 146. Knock-down of CG15172 resulted in: calcium signal, replicate 1 = 133; calcium signal, replicate 2 = 126. Against RhoGAP1A #1, the values are calcium signal, replicate 1 = 74.4 (active); calcium signal, replicate 2 = 174. Knock-down of RhoGAP1A #2 gave: calcium signal, replicate 1 = 205; calcium signal, replicate 2 = 94.9. For CG1927, the values are calcium signal, replicate 1 = 139; calcium signal, replicate 2 = 99.9. After knock-down of opa #1 the results were calcium signal, replicate 1 = 111; calcium signal, replicate 2 = 141.

Silencing of opa #2 gave: calcium signal, replicate 1 = 99.1; calcium signal, replicate 2 = 168. With knock-down of opa #3, the screen gave calcium signal, replicate 1 = 87.5; calcium signal, replicate 2 = 124. For CG34178 + CG34177, the entry reads calcium signal, replicate 1 = 110; calcium signal, replicate 2 = 109. With knock-down of CG17575 the results were calcium signal, replicate 1 = 124; calcium signal, replicate 2 = 190. Coq9 scored calcium signal, replicate 1 = 123; calcium signal, replicate 2 = 159. nau gave calcium signal, replicate 1 = 146; calcium signal, replicate 2 = 124.

Limited to “calcium signal, replicate 1” (4 entries from above):
CG1927: 139
opa #1: 111
opa #2: 99.1
opa #3: 87.5

Continued.
After knock-down of CG1847, the screen gave calcium signal, replicate 1 = 119; calcium signal, replicate 2 = 147. CG6689 scored calcium signal, replicate 1 = 107; calcium signal, replicate 2 = 134. CheA7a showed calcium signal, replicate 1 = 63.9 (active); calcium signal, replicate 2 = 247. With knock-down of Or56a the results were calcium signal, replicate 1 = 165; calcium signal, replicate 2 = 140. After knock-down of Plc21C the results were calcium signal, replicate 1 = 138; calcium signal, replicate 2 = 180. After knock-down of Sln, the record shows calcium signal, replicate 1 = 105; calcium signal, replicate 2 = 162.

Against CG14763, the values are calcium signal, replicate 1 = 92.1; calcium signal, replicate 2 = 109. Depletion of TwdlY gave: calcium signal, replicate 1 = 75.7; calcium signal, replicate 2 = 96.4; retest calcium signal, replicate 1 = 104; retest calcium signal, replicate 2 = 79.4. Against CG7484 the deposit lists calcium signal, replicate 1 = 83.8; calcium signal, replicate 2 = 154. After knock-down of pes, the record shows calcium signal, replicate 1 = 91.5; calcium signal, replicate 2 = 163.
